US9408803B2, “Compositions containing lignan-class compounds” (SUNTORY HOLDINGS LIMITED, priority 2006, dated 2016)
Some results were stated once for a whole list of compounds, not compound by compound.

Experiment: Storage stability of the dissolved samples (precipitation)
Type: physicochemical
Details: ordinary temperatures

## c1cc2c(cc1[C@H]1OC[C@H]3[C@@H]1CO[C@@H]3c1ccc3c(c1)OCO3)OCO2 [Sesamin, sesamin]
  time remained stable without precipitating: at least 9 months
